Laboratory results from the supplement of paper PMC12067093, “Discovery and optimisation of a covalent ligand for TRIM25 and its application to targeted protein ubiquitination” (Chemical Science, 2025).
The list shows a part of the results.

Amino acid sequences for entries named in this document (tags omitted). A change or cut given only in a name is not applied to a line headed by its entry.
UniProt P19338, whole entry, looked up: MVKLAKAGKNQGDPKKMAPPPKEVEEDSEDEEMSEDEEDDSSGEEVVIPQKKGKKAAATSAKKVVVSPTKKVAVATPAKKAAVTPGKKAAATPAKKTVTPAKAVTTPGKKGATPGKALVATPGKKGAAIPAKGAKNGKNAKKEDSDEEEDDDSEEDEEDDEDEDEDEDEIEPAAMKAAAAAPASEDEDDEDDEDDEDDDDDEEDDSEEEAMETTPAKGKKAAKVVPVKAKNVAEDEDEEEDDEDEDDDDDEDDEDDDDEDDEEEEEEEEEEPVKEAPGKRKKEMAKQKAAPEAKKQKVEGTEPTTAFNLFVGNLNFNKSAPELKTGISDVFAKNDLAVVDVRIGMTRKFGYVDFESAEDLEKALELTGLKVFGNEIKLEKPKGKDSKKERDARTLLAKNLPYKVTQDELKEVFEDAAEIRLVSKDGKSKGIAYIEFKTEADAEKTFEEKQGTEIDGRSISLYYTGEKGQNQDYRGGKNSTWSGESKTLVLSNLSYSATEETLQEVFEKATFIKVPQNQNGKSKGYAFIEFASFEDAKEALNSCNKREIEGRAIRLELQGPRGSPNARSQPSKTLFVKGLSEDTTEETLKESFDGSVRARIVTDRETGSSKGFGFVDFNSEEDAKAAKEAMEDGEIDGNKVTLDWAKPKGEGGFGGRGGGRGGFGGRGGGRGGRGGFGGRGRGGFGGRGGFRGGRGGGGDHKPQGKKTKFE
UniProt Q6KC79: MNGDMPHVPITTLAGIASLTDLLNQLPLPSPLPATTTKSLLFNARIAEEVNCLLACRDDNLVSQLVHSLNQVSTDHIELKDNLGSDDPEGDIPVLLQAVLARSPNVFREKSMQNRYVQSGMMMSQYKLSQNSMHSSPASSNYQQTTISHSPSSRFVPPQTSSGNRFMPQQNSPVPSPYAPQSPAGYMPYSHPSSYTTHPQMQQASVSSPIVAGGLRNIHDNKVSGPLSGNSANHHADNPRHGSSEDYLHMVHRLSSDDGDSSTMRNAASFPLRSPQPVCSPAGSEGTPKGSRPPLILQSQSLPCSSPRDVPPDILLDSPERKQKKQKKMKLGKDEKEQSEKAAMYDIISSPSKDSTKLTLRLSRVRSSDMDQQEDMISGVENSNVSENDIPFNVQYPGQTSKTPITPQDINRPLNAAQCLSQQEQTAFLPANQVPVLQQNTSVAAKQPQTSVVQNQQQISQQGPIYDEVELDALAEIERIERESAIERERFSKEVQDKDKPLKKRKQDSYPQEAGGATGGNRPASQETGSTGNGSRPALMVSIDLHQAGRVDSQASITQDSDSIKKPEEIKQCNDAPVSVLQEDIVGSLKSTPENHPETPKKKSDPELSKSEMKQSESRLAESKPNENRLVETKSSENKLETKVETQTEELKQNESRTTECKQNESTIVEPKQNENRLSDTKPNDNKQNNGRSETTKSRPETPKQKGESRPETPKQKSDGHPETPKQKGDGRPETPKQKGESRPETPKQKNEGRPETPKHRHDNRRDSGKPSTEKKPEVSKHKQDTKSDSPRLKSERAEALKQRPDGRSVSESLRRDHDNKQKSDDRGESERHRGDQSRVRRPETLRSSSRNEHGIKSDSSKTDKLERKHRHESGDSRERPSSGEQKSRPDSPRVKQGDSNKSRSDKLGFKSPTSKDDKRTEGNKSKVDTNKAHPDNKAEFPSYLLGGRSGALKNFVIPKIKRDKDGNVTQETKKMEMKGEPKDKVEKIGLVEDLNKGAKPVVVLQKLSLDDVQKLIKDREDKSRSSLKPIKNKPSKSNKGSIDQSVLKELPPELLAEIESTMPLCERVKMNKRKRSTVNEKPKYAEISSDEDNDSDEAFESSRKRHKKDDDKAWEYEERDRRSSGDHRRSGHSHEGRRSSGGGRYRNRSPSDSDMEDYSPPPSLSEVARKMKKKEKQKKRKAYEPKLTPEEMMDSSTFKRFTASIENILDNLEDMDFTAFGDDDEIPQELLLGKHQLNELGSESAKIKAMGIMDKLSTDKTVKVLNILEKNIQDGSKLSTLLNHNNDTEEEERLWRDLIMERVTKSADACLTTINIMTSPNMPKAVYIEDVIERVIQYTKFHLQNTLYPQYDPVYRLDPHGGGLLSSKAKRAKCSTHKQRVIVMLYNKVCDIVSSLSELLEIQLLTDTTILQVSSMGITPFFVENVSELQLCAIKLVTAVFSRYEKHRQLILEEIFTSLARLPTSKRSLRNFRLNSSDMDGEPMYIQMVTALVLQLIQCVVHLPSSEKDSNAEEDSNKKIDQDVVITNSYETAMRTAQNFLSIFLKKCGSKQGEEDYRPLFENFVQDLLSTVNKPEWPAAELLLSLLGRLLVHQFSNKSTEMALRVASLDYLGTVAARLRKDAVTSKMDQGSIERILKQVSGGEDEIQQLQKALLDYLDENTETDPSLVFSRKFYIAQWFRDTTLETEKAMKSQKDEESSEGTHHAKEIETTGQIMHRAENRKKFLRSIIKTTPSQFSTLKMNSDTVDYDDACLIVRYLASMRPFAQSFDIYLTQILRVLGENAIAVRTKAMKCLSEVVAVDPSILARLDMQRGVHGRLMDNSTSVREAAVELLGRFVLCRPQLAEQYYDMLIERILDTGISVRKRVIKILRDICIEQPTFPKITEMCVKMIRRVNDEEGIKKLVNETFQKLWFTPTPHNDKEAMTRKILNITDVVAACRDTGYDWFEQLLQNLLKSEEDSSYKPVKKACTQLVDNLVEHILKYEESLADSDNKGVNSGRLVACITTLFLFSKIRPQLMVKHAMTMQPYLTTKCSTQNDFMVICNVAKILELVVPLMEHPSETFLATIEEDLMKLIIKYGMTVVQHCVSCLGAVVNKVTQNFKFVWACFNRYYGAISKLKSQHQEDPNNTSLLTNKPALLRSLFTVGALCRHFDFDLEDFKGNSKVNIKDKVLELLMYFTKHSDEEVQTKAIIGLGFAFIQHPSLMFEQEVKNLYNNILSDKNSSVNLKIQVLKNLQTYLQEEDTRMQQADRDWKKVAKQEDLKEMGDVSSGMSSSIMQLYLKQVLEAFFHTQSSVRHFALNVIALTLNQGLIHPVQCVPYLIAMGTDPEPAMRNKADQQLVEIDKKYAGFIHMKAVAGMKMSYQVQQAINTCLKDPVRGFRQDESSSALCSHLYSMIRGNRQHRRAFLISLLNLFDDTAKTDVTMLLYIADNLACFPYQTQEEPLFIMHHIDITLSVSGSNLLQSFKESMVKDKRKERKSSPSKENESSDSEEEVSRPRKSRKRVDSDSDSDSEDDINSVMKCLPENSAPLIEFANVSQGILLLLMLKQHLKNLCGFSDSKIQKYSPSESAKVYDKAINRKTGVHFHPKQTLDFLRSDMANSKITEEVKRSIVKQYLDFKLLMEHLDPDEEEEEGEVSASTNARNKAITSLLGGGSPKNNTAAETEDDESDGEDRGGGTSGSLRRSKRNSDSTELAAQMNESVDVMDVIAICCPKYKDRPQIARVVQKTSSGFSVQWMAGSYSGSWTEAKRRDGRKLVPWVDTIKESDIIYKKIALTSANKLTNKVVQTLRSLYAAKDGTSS
UniProt Q96IV0: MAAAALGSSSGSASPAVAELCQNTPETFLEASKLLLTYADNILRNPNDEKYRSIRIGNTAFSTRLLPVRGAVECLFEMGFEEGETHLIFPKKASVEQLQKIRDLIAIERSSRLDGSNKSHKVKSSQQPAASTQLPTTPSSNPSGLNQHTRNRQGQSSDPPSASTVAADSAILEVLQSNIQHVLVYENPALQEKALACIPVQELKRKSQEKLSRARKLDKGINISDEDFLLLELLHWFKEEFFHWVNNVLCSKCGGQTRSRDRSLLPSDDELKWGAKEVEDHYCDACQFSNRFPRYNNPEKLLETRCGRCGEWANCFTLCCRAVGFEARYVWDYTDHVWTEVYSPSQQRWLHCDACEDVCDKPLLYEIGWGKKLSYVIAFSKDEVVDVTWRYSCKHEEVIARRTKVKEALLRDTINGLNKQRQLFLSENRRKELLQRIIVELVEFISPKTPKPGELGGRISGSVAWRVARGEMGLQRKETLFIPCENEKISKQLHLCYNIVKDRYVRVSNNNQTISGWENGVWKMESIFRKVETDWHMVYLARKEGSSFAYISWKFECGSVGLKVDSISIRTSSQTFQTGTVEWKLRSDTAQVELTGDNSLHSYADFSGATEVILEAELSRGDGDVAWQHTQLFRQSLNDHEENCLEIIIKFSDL
UniProt O00221: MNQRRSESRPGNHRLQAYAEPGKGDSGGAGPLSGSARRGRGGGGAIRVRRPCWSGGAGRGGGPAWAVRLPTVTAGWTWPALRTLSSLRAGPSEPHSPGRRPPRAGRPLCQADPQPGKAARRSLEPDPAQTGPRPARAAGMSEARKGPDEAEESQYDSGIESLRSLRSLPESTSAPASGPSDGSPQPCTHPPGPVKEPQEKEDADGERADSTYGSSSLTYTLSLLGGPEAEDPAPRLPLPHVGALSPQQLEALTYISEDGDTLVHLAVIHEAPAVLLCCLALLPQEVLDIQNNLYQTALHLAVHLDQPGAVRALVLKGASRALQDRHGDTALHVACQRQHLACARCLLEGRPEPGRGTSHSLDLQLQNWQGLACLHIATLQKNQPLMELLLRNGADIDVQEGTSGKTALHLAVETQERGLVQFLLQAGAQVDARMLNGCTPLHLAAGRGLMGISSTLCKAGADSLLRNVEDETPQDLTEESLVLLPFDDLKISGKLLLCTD
UniProt O43920, whole entry, looked up: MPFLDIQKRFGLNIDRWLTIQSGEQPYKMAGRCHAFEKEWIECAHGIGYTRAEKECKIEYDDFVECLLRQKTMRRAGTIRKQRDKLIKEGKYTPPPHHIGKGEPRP
UniProt Q9UGV2: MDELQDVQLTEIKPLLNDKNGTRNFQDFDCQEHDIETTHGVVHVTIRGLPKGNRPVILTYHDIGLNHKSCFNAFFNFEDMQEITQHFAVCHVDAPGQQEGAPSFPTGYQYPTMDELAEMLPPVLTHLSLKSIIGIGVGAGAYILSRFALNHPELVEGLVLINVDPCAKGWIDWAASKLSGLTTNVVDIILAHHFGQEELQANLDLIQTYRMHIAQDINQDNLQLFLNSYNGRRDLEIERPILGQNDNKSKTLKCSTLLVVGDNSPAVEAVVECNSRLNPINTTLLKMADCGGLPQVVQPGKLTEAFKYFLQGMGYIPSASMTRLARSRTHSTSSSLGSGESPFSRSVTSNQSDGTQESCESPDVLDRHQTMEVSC
UniProt P46934: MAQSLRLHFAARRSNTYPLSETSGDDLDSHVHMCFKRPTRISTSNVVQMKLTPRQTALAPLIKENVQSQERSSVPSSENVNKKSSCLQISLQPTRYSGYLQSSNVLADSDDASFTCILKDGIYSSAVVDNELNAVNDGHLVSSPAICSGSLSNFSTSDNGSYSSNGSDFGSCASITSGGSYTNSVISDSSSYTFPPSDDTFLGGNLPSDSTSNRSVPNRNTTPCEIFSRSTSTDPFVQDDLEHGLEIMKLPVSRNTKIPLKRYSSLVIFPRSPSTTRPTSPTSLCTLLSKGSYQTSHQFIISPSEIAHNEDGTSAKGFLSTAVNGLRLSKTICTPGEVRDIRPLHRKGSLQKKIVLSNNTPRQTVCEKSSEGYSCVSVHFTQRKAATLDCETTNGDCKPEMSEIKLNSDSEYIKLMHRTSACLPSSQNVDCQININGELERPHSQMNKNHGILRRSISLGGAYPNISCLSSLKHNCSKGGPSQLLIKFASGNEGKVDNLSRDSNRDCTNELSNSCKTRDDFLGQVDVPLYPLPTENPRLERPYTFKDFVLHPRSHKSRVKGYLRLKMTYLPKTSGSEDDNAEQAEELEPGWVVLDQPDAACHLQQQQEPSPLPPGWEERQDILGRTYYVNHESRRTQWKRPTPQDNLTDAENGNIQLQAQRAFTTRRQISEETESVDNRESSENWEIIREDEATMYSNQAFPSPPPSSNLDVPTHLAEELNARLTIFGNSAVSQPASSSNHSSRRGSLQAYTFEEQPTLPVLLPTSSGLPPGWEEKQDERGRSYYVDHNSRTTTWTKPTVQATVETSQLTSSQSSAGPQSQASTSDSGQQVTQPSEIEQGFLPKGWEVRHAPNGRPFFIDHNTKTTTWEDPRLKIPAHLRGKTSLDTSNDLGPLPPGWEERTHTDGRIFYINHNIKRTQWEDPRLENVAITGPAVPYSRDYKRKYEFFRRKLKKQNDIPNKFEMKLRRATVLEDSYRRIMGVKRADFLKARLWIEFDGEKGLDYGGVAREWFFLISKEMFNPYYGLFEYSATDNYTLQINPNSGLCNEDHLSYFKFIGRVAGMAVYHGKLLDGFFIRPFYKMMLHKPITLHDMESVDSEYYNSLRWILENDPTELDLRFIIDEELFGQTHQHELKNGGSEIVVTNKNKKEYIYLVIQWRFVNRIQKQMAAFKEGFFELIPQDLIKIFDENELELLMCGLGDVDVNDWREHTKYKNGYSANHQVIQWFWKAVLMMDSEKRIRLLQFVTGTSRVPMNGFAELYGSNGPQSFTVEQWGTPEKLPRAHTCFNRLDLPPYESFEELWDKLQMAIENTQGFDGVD

These targets were tested with Cc1cc(ccc1-c1ccccc1)C(=O)N1CCCN(CC1)C(=O)CCl [compound 10] (assay: probe-labelled cysteine peptide fold change vs DMSO (competition) (log2 fold change); higher = less target engagement (more negative = stronger competition)). Conditions: 10 µM; THP-1; incubation time: 4 h.
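Note: competitive profiling in live THP-1 cells: cysteine peptides tagged with an iodoacetamide desthiobiotin (IA-DTB) probe, intensity after compound treatment relative to DMSO-treated cells.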

Target	probe-labelled cysteine peptide fold change
NELFB_Q8WX92_254+259_AELLMSLHDLDVGEICTVDPCHK (UniProt Q8WX92)	-0.289
NEU1_Q99519_218_LIVCGHGTLER (UniProt Q99519)	0.0515
NCL_P19338_543_EALNSCNKR (UniProt P19338)	0.0585
NDUFS1_P28331_727_AVTEGAQAVEEPSIC (UniProt P28331)	-0.199
NDUFS8_O00217_121_LCEAICPAQAITIEAEPR (UniProt O00217)	0.428
NCOA7_Q8NI08_762_STCSYYEDEDEEVLPVLRPHSALLENMHIEQLAR (UniProt Q8NI08)	0.0816
NEK9_Q8TD19_556_VLACGLNEFNK (UniProt Q8TD19)	0.217
NF1_P21359_1486_FFLDIASDCPTSDAVNHSLSFISDGNVLALHR (UniProt P21359)	0.0727
NIF3L1_Q9GZT8_148_GLGACTSRPIHPSK (UniProt Q9GZT8)	-0.146
NIPBL_Q6KC79_1066_ELPPELLAEIESTMPLCER (UniProt Q6KC79)	0.643
NFX1_Q12986_901_EMVICSEASSTYQR (UniProt Q12986)	-0.0139
NIT2_Q9NQR4_76_ECSIYLIGGSIPEEDAGK (UniProt Q9NQR4)	0.231
NCOA7_Q8NI08_618_EALDSSLESTLDNSCQGAQMDNK (UniProt Q8NI08)	-0.0625
NEK9_Q8TD19_715_PIFGSLHHVPDLSCR (UniProt Q8TD19)	0.0599
NDUFV1_P49821_187_NACGSGYDFDVFVVR (UniProt P49821)	0.074
NELFCD_Q8IXH7_398_AVETVHNLCCNENK (UniProt Q8IXH7)	0.0172
NDUFS1_P28331_226_MFMSELSGNIIDICPVGALTSK (UniProt P28331)	-0.183
NKTR_P30414_41_NFLCLCSGEK (UniProt P30414)	-0.102
NHLRC2_Q8NBF2_716_AILFSQPLQITDTQQGCIAPVELR (UniProt Q8NBF2)	0.0495

Target	probe-labelled cysteine peptide fold change
NIT1_Q86X76-2_16_AISSSSCELPLVAVCQVTSTPDK (UniProt Q86X76)	0.0369
NIPBL_Q6KC79_1841_FVLCRPQLAEQYYDMLIER (UniProt Q6KC79)	-0.0227
NHP2_Q9NX24_92_GIMVLAGDTLPIEVYCHLPVMCEDR (UniProt Q9NX24)	0.271
NGLY1_Q96IV0_484_KETLFIPCENEK (UniProt Q96IV0)	-0.0225
NFKBIE_O00221_342_QHLACAR (UniProt O00221)	0.164
NELFA_Q9H3P2_471_ENPCQEQGDVIQIK (UniProt Q9H3P2)	-0.294
NDUFS5_O43920_33_CHAFEK (UniProt O43920)	-0.203
NDUFS1_P28331_78_MCLVEIEK (UniProt P28331)	-0.319
NFKBIB_Q15653_240_DAGADLDKPEPTCGR (UniProt Q15653)	-0.396
NFS1_Q9Y697_353_HHYPGCINLSFAYVEGESLLMALK (UniProt Q9Y697)	0.466
NFIX_Q14938_6_MYSPYCLTQDEFHPFIEALLPHVR (UniProt Q14938)	0.0291
NIT1_Q86X76_251+259_AIETQCYVVAAAQCGR (UniProt Q86X76)	0.372
NFX1_Q12986_423_CPACQNVSAHVPNTYTCFCGK (UniProt Q12986)	0.223
NIFK_Q9BYG3_269_QPISCVK (UniProt Q9BYG3)	0.234
NDRG3_Q9UGV2_30_NFQDFDCQEHDIETTHGVVHVTIR (UniProt Q9UGV2)	0.0368
NHP2_Q9NX24_18_ADPDGPEAQAEACSGER (UniProt Q9NX24)	-0.335
NELFCD_Q8IXH7_293_ACQALGAMLSK (UniProt Q8IXH7)	0.0849
NEK6_Q9HC98_258_MNLFSLCQK (UniProt Q9HC98)	0.127
NEDD4_P46934_1197_IFDENELELLMCGLGDVDVNDWREHTK (UniProt P46934)	-0.146

Same assay, conditions: 50 µM; THP-1; incubation time: 4 h

Target	probe-labelled cysteine peptide fold change
NELFB_Q8WX92_254+259_AELLMSLHDLDVGEICTVDPCHK (UniProt Q8WX92)	-0.164
NEU1_Q99519_218_LIVCGHGTLER (UniProt Q99519)	-0.0365
NCL_P19338_543_EALNSCNKR (UniProt P19338)	-0.113
NDUFS1_P28331_727_AVTEGAQAVEEPSIC (UniProt P28331)	0.0438
NDUFS8_O00217_121_LCEAICPAQAITIEAEPR (UniProt O00217)	0.213
NCOA7_Q8NI08_762_STCSYYEDEDEEVLPVLRPHSALLENMHIEQLAR (UniProt Q8NI08)	0.0195
NEK9_Q8TD19_556_VLACGLNEFNK (UniProt Q8TD19)	-0.0386
NF1_P21359_1486_FFLDIASDCPTSDAVNHSLSFISDGNVLALHR (UniProt P21359)	0.051
NIF3L1_Q9GZT8_148_GLGACTSRPIHPSK (UniProt Q9GZT8)	-0.118
NIPBL_Q6KC79_1066_ELPPELLAEIESTMPLCER (UniProt Q6KC79)	0.275
NFX1_Q12986_901_EMVICSEASSTYQR (UniProt Q12986)	-0.364
NIT2_Q9NQR4_76_ECSIYLIGGSIPEEDAGK (UniProt Q9NQR4)	0.423
NCOA7_Q8NI08_618_EALDSSLESTLDNSCQGAQMDNK (UniProt Q8NI08)	-0.0994
NEK9_Q8TD19_715_PIFGSLHHVPDLSCR (UniProt Q8TD19)	0.133
NDUFV1_P49821_187_NACGSGYDFDVFVVR (UniProt P49821)	0.242
NELFCD_Q8IXH7_398_AVETVHNLCCNENK (UniProt Q8IXH7)	-0.151
NDUFS1_P28331_226_MFMSELSGNIIDICPVGALTSK (UniProt P28331)	-0.0388
NKTR_P30414_41_NFLCLCSGEK (UniProt P30414)	-0.279
NHLRC2_Q8NBF2_716_AILFSQPLQITDTQQGCIAPVELR (UniProt Q8NBF2)	0.165

Target	probe-labelled cysteine peptide fold change
NIT1_Q86X76-2_16_AISSSSCELPLVAVCQVTSTPDK (UniProt Q86X76)	0.129
NIPBL_Q6KC79_1841_FVLCRPQLAEQYYDMLIER (UniProt Q6KC79)	0.0567
NHP2_Q9NX24_92_GIMVLAGDTLPIEVYCHLPVMCEDR (UniProt Q9NX24)	0.265
NGLY1_Q96IV0_484_KETLFIPCENEK (UniProt Q96IV0)	0.0731
NFKBIE_O00221_342_QHLACAR (UniProt O00221)	-0.193
NELFA_Q9H3P2_471_ENPCQEQGDVIQIK (UniProt Q9H3P2)	-0.242
NDUFS5_O43920_33_CHAFEK (UniProt O43920)	0.0729
NDUFS1_P28331_78_MCLVEIEK (UniProt P28331)	-0.624
NFKBIB_Q15653_240_DAGADLDKPEPTCGR (UniProt Q15653)	-0.167
NFS1_Q9Y697_353_HHYPGCINLSFAYVEGESLLMALK (UniProt Q9Y697)	0.42
NFIX_Q14938_6_MYSPYCLTQDEFHPFIEALLPHVR (UniProt Q14938)	0.0462
NIT1_Q86X76_251+259_AIETQCYVVAAAQCGR (UniProt Q86X76)	0.793
NFX1_Q12986_423_CPACQNVSAHVPNTYTCFCGK (UniProt Q12986)	0.12
NIFK_Q9BYG3_269_QPISCVK (UniProt Q9BYG3)	-0.0647
NDRG3_Q9UGV2_30_NFQDFDCQEHDIETTHGVVHVTIR (UniProt Q9UGV2)	-0.22
NHP2_Q9NX24_18_ADPDGPEAQAEACSGER (UniProt Q9NX24)	-0.124
NELFCD_Q8IXH7_293_ACQALGAMLSK (UniProt Q8IXH7)	-0.0652
NEK6_Q9HC98_258_MNLFSLCQK (UniProt Q9HC98)	-0.571
NEDD4_P46934_1197_IFDENELELLMCGLGDVDVNDWREHTK (UniProt P46934)	-0.184
